± gives the standard deviation of the averaged measurements. This is a selection; strong and weak results do not stand in their true shares.
Columns and labels:
Experiment in all cases: NP40-soluble protein abundance relative to vehicle (solubility fold change) (ratio); higher = more soluble protein in presence of ATP
ARHGAP1 = target: T1, ARHGAP1 (UniProt Q07960)
T1 sequence (whole entry): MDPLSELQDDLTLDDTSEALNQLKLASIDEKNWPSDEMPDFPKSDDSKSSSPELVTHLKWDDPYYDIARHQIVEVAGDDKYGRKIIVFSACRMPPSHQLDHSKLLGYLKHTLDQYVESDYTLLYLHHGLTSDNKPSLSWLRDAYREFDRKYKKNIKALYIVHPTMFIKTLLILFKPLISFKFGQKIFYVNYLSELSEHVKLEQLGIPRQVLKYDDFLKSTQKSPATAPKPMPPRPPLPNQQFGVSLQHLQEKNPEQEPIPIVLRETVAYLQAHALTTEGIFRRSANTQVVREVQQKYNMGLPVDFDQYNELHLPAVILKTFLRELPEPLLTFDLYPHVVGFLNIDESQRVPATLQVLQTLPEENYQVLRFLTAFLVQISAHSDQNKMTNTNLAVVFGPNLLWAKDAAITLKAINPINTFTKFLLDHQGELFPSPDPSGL
Method in brief: (§1)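 Jurkat crude lysate (Dounce-homogenised) was treated with eight concentrations from 0.1 to 10 mM for 10 min at room temperature, then 3 min at 37 °C. It was solubilised with 0.8% NP40 and benzonase (60 min, 4 °C) and ultracentrifuged, and the supernatant was TMT-labelled for LC-MS/MS. Intensities were vsn-normalised, and the value is the fold change against the NP40-processed vehicle per replicate, from three independent experiments.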

DR1 = target: T2, DR1 (UniProt Q01658)
T2 sequence (whole entry): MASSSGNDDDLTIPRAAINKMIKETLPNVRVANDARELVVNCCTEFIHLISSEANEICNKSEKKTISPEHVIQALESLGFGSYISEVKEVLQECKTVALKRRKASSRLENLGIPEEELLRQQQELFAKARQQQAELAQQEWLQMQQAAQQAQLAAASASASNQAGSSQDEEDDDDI
Method in brief: as §1

LMAN2 = target: T3, LMAN2 (UniProt Q12907)
T3 sequence (whole entry): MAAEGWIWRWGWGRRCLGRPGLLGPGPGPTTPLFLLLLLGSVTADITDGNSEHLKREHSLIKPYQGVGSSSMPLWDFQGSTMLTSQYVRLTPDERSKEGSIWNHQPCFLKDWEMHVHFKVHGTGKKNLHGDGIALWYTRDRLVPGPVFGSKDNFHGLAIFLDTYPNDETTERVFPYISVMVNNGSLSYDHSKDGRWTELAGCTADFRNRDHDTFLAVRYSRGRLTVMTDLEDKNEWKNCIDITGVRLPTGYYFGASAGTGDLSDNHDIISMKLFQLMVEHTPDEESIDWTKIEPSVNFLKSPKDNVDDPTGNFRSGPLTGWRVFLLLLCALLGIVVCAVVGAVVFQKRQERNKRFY
Method in brief: as §1

MFGE8 = target: T4, MFGE8 (UniProt Q08431)
T4 sequence (whole entry): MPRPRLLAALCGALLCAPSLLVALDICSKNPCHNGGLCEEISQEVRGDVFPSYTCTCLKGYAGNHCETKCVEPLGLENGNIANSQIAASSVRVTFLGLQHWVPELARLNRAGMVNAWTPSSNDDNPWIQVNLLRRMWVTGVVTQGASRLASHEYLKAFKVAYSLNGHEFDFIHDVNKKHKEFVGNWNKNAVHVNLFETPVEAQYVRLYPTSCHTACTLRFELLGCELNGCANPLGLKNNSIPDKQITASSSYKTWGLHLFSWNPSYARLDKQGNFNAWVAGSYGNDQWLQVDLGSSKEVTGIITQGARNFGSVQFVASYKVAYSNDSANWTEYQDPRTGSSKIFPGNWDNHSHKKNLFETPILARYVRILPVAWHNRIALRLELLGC
Method in brief: as §1

MLLT11 = target: T5, MLLT11 (UniProt Q13015)
T5 sequence (whole entry): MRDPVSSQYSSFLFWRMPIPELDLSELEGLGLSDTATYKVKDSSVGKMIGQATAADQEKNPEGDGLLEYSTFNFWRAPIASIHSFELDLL
Method in brief: as §1

Nc1ncnc2c1ncn2[C@@H]1O[C@H](COP(=O)(O)OP(=O)(O)OP(=O)(O)O)[C@@H](O)[C@H]1O [adenosine triphosphate]
NP40-soluble protein abundance (ARHGAP1; concentration: 1mM): 1 ± 0.062
NP40-soluble protein abundance (ARHGAP1; concentration: 2mM): 0.976 ± 0.067
NP40-soluble protein abundance (ARHGAP1; concentration: 4mM): 0.958 ± 0.049
NP40-soluble protein abundance (ARHGAP1; concentration: 6mM): 0.947 ± 0.065
NP40-soluble protein abundance (ARHGAP1; concentration: 8mM): 0.957 ± 0.05
NP40-soluble protein abundance (ARHGAP1; concentration: 10mM): 0.95 ± 0.055
NP40-soluble protein abundance (DR1; concentration: 1mM): 0.871 ± 0.18
NP40-soluble protein abundance (DR1; concentration: 2mM): 0.832 ± 0.099
NP40-soluble protein abundance (DR1; concentration: 4mM): 0.707 ± 0.12
NP40-soluble protein abundance (DR1; concentration: 6mM): 0.773 ± 0.12
NP40-soluble protein abundance (DR1; concentration: 8mM): 0.76 ± 0.047
NP40-soluble protein abundance (DR1; concentration: 10mM): 0.683 ± 0.16
NP40-soluble protein abundance (LMAN2; concentration: 1mM): 0.987 ± 0.087
NP40-soluble protein abundance (LMAN2; concentration: 2mM): 0.998 ± 0.067
NP40-soluble protein abundance (LMAN2; concentration: 4mM): 0.958 ± 0.055
NP40-soluble protein abundance (LMAN2; concentration: 6mM): 0.945 ± 0.11
NP40-soluble protein abundance (LMAN2; concentration: 8mM): 0.986 ± 0.045
NP40-soluble protein abundance (LMAN2; concentration: 10mM): 0.993 ± 0.053
NP40-soluble protein abundance (MFGE8; concentration: 1mM): 0.983 ± 0.039
NP40-soluble protein abundance (MFGE8; concentration: 2mM): 0.987 ± 0.024
NP40-soluble protein abundance (MFGE8; concentration: 4mM): 0.973 ± 0.077
NP40-soluble protein abundance (MFGE8; concentration: 6mM): 0.924 ± 0.06
NP40-soluble protein abundance (MFGE8; concentration: 8mM): 0.9526 ± 0.005
NP40-soluble protein abundance (MFGE8; concentration: 10mM): 0.998 ± 0.046
NP40-soluble protein abundance (MLLT11; concentration: 1mM): 1.2 ± 0.024
NP40-soluble protein abundance (MLLT11; concentration: 2mM): 1.15 ± 0.069
NP40-soluble protein abundance (MLLT11; concentration: 4mM): 0.815 ± 0.03

From the supplement of paper PMC6411743
